According to patent US5206014A, “Synthetic nonapeptide for use as an adjuvant” (Sclavo, S.p.A., priority 1987, dated 1993):
Structures can show the parent of a compound that is named as a salt. Part of at least one peptide drawing is inferred or uncertain, most often the ends. Where a SMILES comes first, the peptide text is derived from it.

Assays:
[1] = tested on: primary antibody response to sheep's red corpuscles (SRBC), thymo-dependent antigen; experiment: Primary antibody response to SRBC, direct haemolysis plaque (PFC/spleen, IgM) in immunized mice; assay type: in vivo; conditions: for PFC/spleen, primary response to SRBC: control 42,364
Experimental: More particularly, the immunostimulating activity of peptides 163-171 TFA and 163-171.HCl were assayed in the antibody response to sheep's red blood compuscles, thymo-dependent antigens and in response to the polysaccharide of Streptococcus pneumoniae serotype 3 (SIII), a thymo-independent antigen having low immunogenicity by using the method of haemolysis of plaques described by Cunningham A. J. and Szenberg (Immunology, 14, 599, 1968).
The method consists in determining the number of cells which secrete antibodies specific to a given antigen. It consists in immunizing mice with the antigen to be assayed, placing lymphocytes obtained from the spleen of the immunized mice in contact with the same antigen, and finally in detecting the haemolysis plaques by adding complement.
Lysis zones (plaque-forming cells PFC) are observed at the place where the antigen-antibody reaction occurs, i.e. at each cell producing specific antibodies.
(§1) According to the invention, therefore, anti-body secreting cells of Classes IgM and IgG are determined by isolating lymphocytes from the spleen of mice immunized with SRBC and SIII antigens and treated by various methods and with various doses of peptide 163-171.TFA and peptide 163-171.HCl. To this end use has been made with identical results of inbred male C3H/HeNCr1BR mice and male and female C3H/HeJ mice weighing about 25 g. According to the invention, SRBC and SIII antigens previously dissolved in phosphate buffer (PBS) were inoculated in the mice, intravenously and intraperitoneally respectively, at a concentration of 1-2×10^8 SRBC/0.2 ml of PBS and 0.5 μg/0.5 ml of PBS.
The peptides in salt form were then introduced into the animals in individual doses, either intraperitoneally or intravenously, together with or separately from the antigens in concentrations of 1 pg/kg to 100 mg/kg body weight in the form of sterile solutions in a pharmacologically acceptable solvent.
More particularly, saline phosphate was used. The resulting solution, before being inoculated in the mice, was brought to neutral pH with an inorganic base chosen from NaOH and KOH.
24 C3H/HeNcr1BR inbred male mice (CALCO-ITALIA) aged 10-12 weeks and weighing about 25 g were intravenously treated with 0.2 ml saline phosphate buffer (PBS) containing 1-2×10^8 sheep's red corpuscles (SCLAVO). After 2 hours the mice were intraperitoneally treated as follows: 3 mice with 0.2 ml PBS, 4 groups of 3 mice with 0.2 ml of PBS containing 500 - 1000 - 2000 and 4000 U/kg of human interleukin 1β (Genzyme Corporation Boston) and 3 groups of 3 mice with 0.2 ml PBS respectively containing 12, 36 and 100 mg/kg of peptide 163-171.
The solutions containing peptide, before being inoculated, were brought to neutral pH with 0.1 N NaOH.
After 4 days the mice were killed and the spleens were removed and mechanically dissociated to separate the lymphocytes.
After being isolated, the lymphocytes were washed three times, each time with 15 ml of minimum culture medium containing Earle salts (M.E.M) (M.A. Bioproducts Walkerswille) and then resuspended in 1 ml of the same culture medium at a final concentration of 150,000 cells. 0.1 ml of each cell suspension was successively diluted (1:10 and 1:1000) with MEM culture medium and 100 μl of each dilution were twice added to wells of microplates containing 25 μl of MEM culture medium, 25 μl of a 10% solution of SRBC antigens and 25 μl of guinea-pig complement at a final dilution of 1:64.
The entire suspension was immediately transferred by capillary action from each well to superposed slides.
The slides, sealed at the edges with paraffin, were then incubated in a thermostat at 37° C. for one hour. At the end of this period, the plaques of direct haemolysis were counted using a light-contrast visor, indicating the number of lymphocytes secreting antibodies (PFC). The thus-detected antibodies were in Class IgM, specific to the primary antibody response. […]

[2] = tested on: secondary antibody response to SRBC; experiment: Secondary antibody response to SRBC, total PFC/spleen (IgM+IgG) in immunized mice; assay type: in vivo; conditions: for Total PFC/spleen (% control), secondary response to SRBC / Total PFC/spleen, secondary response to SRBC: intravenous together with antigen; for Total PFC/spleen, secondary response to SRBC: control 20,091; for Average of total anti-SRBC PFC-spleen (95% confidence limits): measured four days later
Experimental: The number of IgG class antibody-secreting cells characteristic of the secondary response is determined, before the complement is added, by adding a direct rabbit antiserum against mouse immunoglobulins.
as §1
Mice immunized with SRBC as in Example 1 hereinbefore were intraperitoneally re-inoculated four days after the first inoculation with a similar dose of SRBC antigens and simultaneously with 12, 36, 100 mg/kg peptide 163-171.TFA and 500 - 1000 - 2000 U/kg of human IL-1-β.
The immunostimulating activity of the peptide on the secondary response to SRBC was also determined by administering the same doses of peptide and human IL-1β but only with the first inoculation.
Four days after the second dose the mice were killed and the number of PFC/spleen was determined as in Example 1, after combining the complement with a rabbit serum against mouse immunoglobulin at a final dilution of 1:200.
^a The mice intravenously inoculated with 1-2 × 10^8 SRBC o
day -10 and were given a similar dose on day 0 and simultaneously treated
intraperitoneally with PBS (control) or with various doses of peptide
163-171.TFA or hu rIL1β. The total number of antiSRBC PFC was
measured four days after the second inoculation of antigen.
The procedure was the same as in Example 4, the antigen being intravenously inoculated together with preparations of peptide 163-171.TFA and 163-171.HCl (from 100 pg/kg to 100 μg/kg in PBS).

[3] = 100 mg/kg intraperitoneally 2 hours after SRBC

| Compound | PFC/spleen (% control), primary response to SRBC ([1]; intravenous, 1 pg/kg) | PFC/spleen, primary response to SRBC ([1]; intravenous, 1 pg/kg) | PFC/spleen (% control), primary response to SRBC ([1]; intravenous, 10 pg/kg) | PFC/spleen, primary response to SRBC ([1]; intravenous, 10 pg/kg) | PFC/spleen (% control), primary response to SRBC ([1]; intravenous, 100 pg/kg) | PFC/spleen, primary response to SRBC ([1]; intravenous, 100 pg/kg) | PFC/spleen (% control), primary response to SRBC ([1]; intravenous, 10 ng/kg) | PFC/spleen, primary response to SRBC ([1]; intravenous, 10 ng/kg) | PFC/spleen (% control), primary response to SRBC ([1]; intravenous, 1 μg/kg) | PFC/spleen, primary response to SRBC ([1]; intravenous, 1 μg/kg) | PFC/spleen (% control), primary response to SRBC ([1]; intravenous, 100 μg/kg) | PFC/spleen, primary response to SRBC ([1]; intravenous, 100 μg/kg) | Dose giving maximum increase in the secondary response to SRBC ([2]; intravenous) | Total PFC/spleen (% control), secondary response to SRBC ([2]; 100 pg/kg) | Total PFC/spleen, secondary response to SRBC ([2]; 100 pg/kg) | Total PFC/spleen (% control), secondary response to SRBC ([2]; 10 ng/kg) | Total PFC/spleen, secondary response to SRBC ([2]; 10 ng/kg) | Total PFC/spleen (% control), secondary response to SRBC ([2]; 1 μg/kg) | Total PFC/spleen, secondary response to SRBC ([2]; 1 μg/kg) | Total PFC/spleen (% control), secondary response to SRBC ([2]; 100 μg/kg) | other results |
| --- | --- | --- | --- | --- | --- | --- | --- | --- | --- | --- | --- | --- | --- | --- | --- | --- | --- | --- | --- | --- | --- |
| CC(C)[C@H](N)C(=O)N[C@@H](CCC(N)=O)C(=O)NCC(=O)N[C@@H](CCC(=O)O)C(=O)N[C@@H](CCC(=O)O)C(=O)N[C@@H](CO)C(=O)N[C@@H](CC(N)=O)C(=O)N[C@@H](CC(=O)O)C(=O)N[C@@H](CCCCN)C(=O)O [peptide 163-171.HCl, Val-Gln-Gly-Glu-Glu-Ser-Asn-Asp-Lys-X] (H-VQGEESNDK-OH) | 183.2% | 77,625 PFC/spleen | 311.2% | 131,826 PFC/spleen | 210.4% | 89,125 PFC/spleen | 189.9% | 80,456 PFC/spleen | 142.2% | 60,256 PFC/spleen | 108.6% | 46,026 PFC/spleen | 0.001 mg/kg | 154.9% | 31,117 PFC/spleen | 255.3% | 51,286 PFC/spleen | 304.8% | 61,235 PFC/spleen | 187.9% | Activity compared with the 163-171.TFA preparation as regards dose for optimum immunostimulating effect ([1]; intravenous): significantly more active than the 163-171.TFA preparation; PFC/spleen (% control), primary response to SRBC ([1]; intravenous, 1 ng/kg): 213.8%; PFC/spleen, primary response to SRBC ([1]; intravenous, 1 ng/kg): 90,573 PFC/spleen; PFC/spleen (% control), primary response to SRBC ([1]; intravenous, 100 ng/kg): 145.5%; PFC/spleen, primary response to SRBC ([1]; intravenous, 100 ng/kg): 61,659 PFC/spleen; Total PFC/spleen, secondary response to SRBC ([2]; 100 μg/kg): 37,757 PFC/spleen; Optimum dose for secondary response to SRBC relative to peptide 163-171.TFA (times less) ([2]; intravenous, 1 μg/kg versus 100 μg/kg): about 10,000 times |
| CC(C)[C@H](N)C(=O)N[C@@H](CCC(N)=O)C(=O)NCC(=O)N[C@@H](CCC(=O)O)C(=O)N[C@@H](CCC(=O)O)C(=O)N[C@@H](CO)C(=O)N[C@@H](CC(N)=O)C(=O)N[C@@H](CC(=O)O)C(=O)N[C@@H](CCCCN)C(=O)O [peptide 163-171.TFA, Val-Gln-Gly-Glu-Glu-Ser-Asn-Asp-Lys-X] (H-VQGEESNDK-OH) | 97.7% | 41,400 PFC/spleen | 97.7% | 41,400 PFC/spleen | 105.3% | 44,610 PFC/spleen | 99.1% | 41,976 PFC/spleen | 182.0% | 77,090 PFC/spleen | 255.5% | 108,232 PFC/spleen | 0.1 mg/kg | 85.9% | 17,258 PFC/spleen | 134.0% | 26,915 PFC/spleen | 156.3% | 31,405 PFC/spleen | 306.9% | Immunostimulating activity (PFC/spleen) at 2, 4, 7, 9 and 15 days after inoculation [1, 3]: significant immunostimulating activity; Time of maximum immunostimulating activity after inoculation [1, 3]: 4 days; Effect on PFC/spleen when given two days before, two hours after or two days after immunization ([1]; 100 mg/kg intraperitoneally, PFC measured four days after immunization): significant increase in the PFC/spleen; Increase in PFC/spleen after three consecutive daily doses before immunization ([1]; intraperitoneal, daily dose 10 to 100 times smaller than the optimum dose): equal to that obtained by introducing the optimum dose together with the antigens; Dose of maximum increase in PFC/spleen, primary response to SRBC ([1]; intraperitoneal, doses 12, 36, 100 mg/kg): 100 mg/kg; Effect on number of plaques/spleen, primary response to SRBC (FIGS. 1A, 1B) ([1]; intraperitoneal, peptide 12-100 mg/kg, IL-1β 500-4000 U/kg, depending on the dose): increase in the number of plaques/spleen; Doses giving maximum increase in the primary response to SRBC ([1]; intravenous): 0.01 to 0.1 mg/kg; PFC/spleen (% control), primary response to SRBC ([1]; intravenous, 10 μg/kg): 245.7%; PFC/spleen, primary response to SRBC ([1]; intravenous, 10 μg/kg): 104,071 PFC/spleen; Average of total anti-SRBC PFC-spleen (95% confidence limits) ([2]; 12 mg/kg intraperitoneally with second SRBC inoculum (day 0), PBS control 21.528): 38.019 (31.989-45.185) PFC-spleen; Average of total anti-SRBC PFC-spleen (95% confidence limits) ([2]; 36 mg/kg intraperitoneally with second SRBC inoculum (day 0), PBS control 21.528): 40.457 (22.646-72.110) PFC-spleen; Average of total anti-SRBC PFC-spleen (95% confidence limits) ([2]; 100 mg/kg intraperitoneally with second SRBC inoculum (day 0), PBS control 29.992): 93.325 (69.023-126.182) PFC-spleen; Average of total anti-SRBC PFC-spleen (95% confidence limits) ([2]; 108 mg/kg intraperitoneally with second SRBC inoculum (day 0), PBS control 21.528): 44.987 (26.442-76.560) PFC-spleen; Dose of maximum increase in total PFC/spleen, secondary response to SRBC ([2]; intraperitoneal): 100 mg/kg; Total PFC/spleen, secondary response to SRBC ([2]; 100 μg/kg): 61,659 PFC/spleen |
